Measurements: patent US20210144998A1 (priority 2019, published 2021)
For at least one compound, name, drawing or mass did not settle the structure.

How the values were obtained:
[1] = test system: LdtR; settings: NIHCC
[2] = test system: RpoH; settings: NIHCC

O=c1c2ccccc2[se]n1-c1ccccc1 [Ebselen]
activity annotation LdtR [1]: Ebselen (2; inactive LdtR & RpoH NIHCC) | activity annotation RpoH [2]: Ebselen (2; inactive LdtR & RpoH NIHCC)
